PubChem BioAssay AID743454, Peter MacCallum Cancer Centre, 2014

Aim: 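Search for knock-downs that restore vorinostat killing in resistant colon cancer cells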 (primary screen)
Cell system: human HCT116-VR colon cancer cells, selected for vorinostat resistance
Reagent: siRNA pool against human genes, 40 nM siRNA pool
Duration: vorinostat for 24 h, read-out about 72 h after transfection
Challenge: vorinostat at 2.5 µM final
Measurement: 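Two measures, CellTiter-Fluor viability and luminescent caspase 3/7 activity, each as fold change against same-plate mock wells, mean of duplicates, then screen-wide robust z-score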
Scale: viability robust z-score: higher = more viable cells than screen typical; caspase robust z-score: higher = more caspase 3/7 activity than screen typical
Hit rule: 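a knock-down is a hit when classed RV1 or RV2 for lowered viability, or CA1 or CA2 for caspase activation; those lethal without drug were dropped; hits were retested singly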
This is one part, drawn at random, of about 18,000 reagents tested. 450 of them (2.5%) were called active. 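Single biological run; no consistent viability z cut-off exists, so the class columns, not z-scores, define the calls.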 Reagent sequences are not shown.

CXorf66 (chromosome X open reading frame 66)
- viability hit class: no change
- caspase hit class: no change
- viability robust z-score: -0.47
- caspase robust z-score: -1.43
- outcome: inactive

HIRA (histone cell cycle regulator)
- viability hit class: no change
- caspase hit class: no change
- viability robust z-score: -1.54
- caspase robust z-score: -0.7
- outcome: inactive

CENPB (centromere protein B)
- viability hit class: no change
- caspase hit class: no change
- viability robust z-score: 1.15
- caspase robust z-score: 1.39
- outcome: inactive

LIPA (lipase A, lysosomal acid type)
- viability hit class: no change
- caspase hit class: no change
- viability robust z-score: -0.41
- caspase robust z-score: 0.03
- outcome: inactive

ZNF385A (zinc finger protein 385A)
- viability hit class: no change
- caspase hit class: no change
- viability robust z-score: 0.02
- caspase robust z-score: -0.1
- outcome: inactive

PLEKHJ1 (pleckstrin homology domain containing J1)
- viability hit class: no change
- caspase hit class: no change
- viability robust z-score: 0.53
- caspase robust z-score: 1.43
- outcome: inactive

HARBI1 (harbinger transposase derived 1)
- viability hit class: no change
- caspase hit class: no change
- viability robust z-score: 0.44
- caspase robust z-score: -1.1
- outcome: inactive

NME7 (NME/NM23 family member 7)
- viability hit class: no change
- caspase hit class: no change
- viability robust z-score: 0.22
- caspase robust z-score: -0.76
- outcome: inactive

ITGBL1 (integrin subunit beta like 1)
- viability hit class: no change
- caspase hit class: no change
- viability robust z-score: 1.2
- caspase robust z-score: -0.64
- outcome: inactive

LYSMD4 (LysM domain containing 4)
- viability hit class: no change
- caspase hit class: no change
- viability robust z-score: -0.68
- caspase robust z-score: -0.52
- outcome: inactive

GTF2E1 (general transcription factor IIE subunit 1)
- viability hit class: no change
- caspase hit class: no change
- viability robust z-score: -1.62
- caspase robust z-score: 3.34
- outcome: inactive

HEY1
- viability hit class: no change
- caspase hit class: no change
- viability robust z-score: 0.08
- caspase robust z-score: -0.68
- outcome: inactive

HSD17B7 (hydroxysteroid 17-beta dehydrogenase 7)
- viability hit class: no change
- caspase hit class: no change
- viability robust z-score: 0.24
- caspase robust z-score: -0.69
- outcome: inactive

DCAF15 (DDB1 and CUL4 associated factor 15)
- viability hit class: no change
- caspase hit class: no change
- viability robust z-score: 1.52
- caspase robust z-score: -0.03
- outcome: inactive

ACTL6B (actin like 6B)
- viability hit class: no change
- caspase hit class: no change
- viability robust z-score: -0.7
- caspase robust z-score: 0.41
- outcome: inactive

DGKK (diacylglycerol kinase kappa)
- viability hit class: no change
- caspase hit class: no change
- viability robust z-score: 1.19
- caspase robust z-score: -0.46
- outcome: inactive

PPFIBP1 (PPFIB scaffold protein 1)
- viability hit class: no change
- caspase hit class: no change
- viability robust z-score: 0.07
- caspase robust z-score: -0.45
- outcome: inactive

GLIS2 (GLIS family zinc finger 2)
- viability hit class: no change
- caspase hit class: no change
- viability robust z-score: 0.55
- caspase robust z-score: -0.7
- outcome: inactive

CD80 (CD80 molecule)
- viability hit class: no change
- caspase hit class: no change
- viability robust z-score: -0.52
- caspase robust z-score: 0.04
- outcome: inactive

ERC2 (ELKS/RAB6-interacting/CAST family member 2)
- viability hit class: no change
- caspase hit class: no change
- viability robust z-score: -0.99
- caspase robust z-score: -0.94
- outcome: inactive

DNAJC14 (DnaJ heat shock protein family (Hsp40) member C14)
- viability hit class: no change
- caspase hit class: no change
- viability robust z-score: 0.26
- caspase robust z-score: 1.35
- outcome: inactive

Sorted by “caspase robust z-score” (low to high): some entries from above.
CXorf66 (chromosome X open reading frame 66)
- viability hit class: no change
- caspase hit class: no change
- viability robust z-score: -0.47
- caspase robust z-score: -1.43
- outcome: inactive

HIRA (histone cell cycle regulator)
- viability hit class: no change
- caspase hit class: no change
- viability robust z-score: -1.54
- caspase robust z-score: -0.7
- outcome: inactive
